No constants are given. Whether binding was seen depends on the method and setting. In cells and extracts the contact can be indirect. Some results given as binding are weak or reduced against the parent protein; the word gives no strength.
What was measured:
[1] = molecular target: HA-C/EBPβ K133R (UniProt P28033); test: co-IP
[2] = molecular target: HA-C/EBPβ WT (CCAAT/enhancer binding protein β, wild type) (UniProt P28033); test: co-IP

Sequences of proteins named here, by UniProt entry; tags and fusion partners are left off. A change or cut given only in a name is not applied to a line headed by its entry.
UniProt P28033, whole entry: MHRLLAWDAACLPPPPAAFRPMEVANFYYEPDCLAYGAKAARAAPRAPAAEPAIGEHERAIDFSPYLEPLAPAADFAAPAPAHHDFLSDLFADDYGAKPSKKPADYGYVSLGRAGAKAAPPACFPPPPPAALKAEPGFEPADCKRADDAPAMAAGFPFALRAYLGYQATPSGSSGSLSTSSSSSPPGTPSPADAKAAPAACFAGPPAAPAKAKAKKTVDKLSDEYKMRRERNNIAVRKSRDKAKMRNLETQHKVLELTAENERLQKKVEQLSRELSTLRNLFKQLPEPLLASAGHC
UniProt Q9UER7, whole entry: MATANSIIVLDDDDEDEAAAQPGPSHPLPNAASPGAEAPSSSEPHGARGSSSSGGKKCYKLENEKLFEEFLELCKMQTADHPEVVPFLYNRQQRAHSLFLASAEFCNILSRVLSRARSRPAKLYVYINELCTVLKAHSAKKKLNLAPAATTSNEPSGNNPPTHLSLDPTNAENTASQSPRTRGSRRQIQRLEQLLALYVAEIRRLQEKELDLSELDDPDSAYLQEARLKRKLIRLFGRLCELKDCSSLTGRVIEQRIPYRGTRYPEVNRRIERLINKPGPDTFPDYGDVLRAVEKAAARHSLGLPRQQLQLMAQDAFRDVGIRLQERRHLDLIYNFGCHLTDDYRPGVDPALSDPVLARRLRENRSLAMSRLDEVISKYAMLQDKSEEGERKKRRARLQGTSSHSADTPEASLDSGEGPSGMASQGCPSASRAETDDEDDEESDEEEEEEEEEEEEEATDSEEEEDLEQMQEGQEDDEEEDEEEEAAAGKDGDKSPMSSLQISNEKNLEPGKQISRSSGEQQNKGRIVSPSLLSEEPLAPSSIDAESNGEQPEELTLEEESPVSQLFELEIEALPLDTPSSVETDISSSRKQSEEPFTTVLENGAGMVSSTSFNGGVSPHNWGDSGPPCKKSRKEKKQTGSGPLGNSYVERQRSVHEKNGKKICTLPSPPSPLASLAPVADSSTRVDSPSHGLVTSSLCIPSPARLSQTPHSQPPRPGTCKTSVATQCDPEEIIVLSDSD

FLAG-DAXX (death domain-associated protein) (from UniProt Q9UER7 1-740)
binding [1]: binds | binding [2]: binds
